Here are results for eleven molecules from paper doi:10.1101/2020.02.21.958371.

These are yes or no findings as the source states them, for the method shown. Binding can be weak; no strength is given. Tags and fused reporters may be left off the sequences shown. For some assays here: In cells and extracts the contact can be indirect.

Test [1] has as its target T1, ROS1, split YFP fusion (BiFC) (Arabidopsis) (UniProt Q9SJQ6).
T1 sequence: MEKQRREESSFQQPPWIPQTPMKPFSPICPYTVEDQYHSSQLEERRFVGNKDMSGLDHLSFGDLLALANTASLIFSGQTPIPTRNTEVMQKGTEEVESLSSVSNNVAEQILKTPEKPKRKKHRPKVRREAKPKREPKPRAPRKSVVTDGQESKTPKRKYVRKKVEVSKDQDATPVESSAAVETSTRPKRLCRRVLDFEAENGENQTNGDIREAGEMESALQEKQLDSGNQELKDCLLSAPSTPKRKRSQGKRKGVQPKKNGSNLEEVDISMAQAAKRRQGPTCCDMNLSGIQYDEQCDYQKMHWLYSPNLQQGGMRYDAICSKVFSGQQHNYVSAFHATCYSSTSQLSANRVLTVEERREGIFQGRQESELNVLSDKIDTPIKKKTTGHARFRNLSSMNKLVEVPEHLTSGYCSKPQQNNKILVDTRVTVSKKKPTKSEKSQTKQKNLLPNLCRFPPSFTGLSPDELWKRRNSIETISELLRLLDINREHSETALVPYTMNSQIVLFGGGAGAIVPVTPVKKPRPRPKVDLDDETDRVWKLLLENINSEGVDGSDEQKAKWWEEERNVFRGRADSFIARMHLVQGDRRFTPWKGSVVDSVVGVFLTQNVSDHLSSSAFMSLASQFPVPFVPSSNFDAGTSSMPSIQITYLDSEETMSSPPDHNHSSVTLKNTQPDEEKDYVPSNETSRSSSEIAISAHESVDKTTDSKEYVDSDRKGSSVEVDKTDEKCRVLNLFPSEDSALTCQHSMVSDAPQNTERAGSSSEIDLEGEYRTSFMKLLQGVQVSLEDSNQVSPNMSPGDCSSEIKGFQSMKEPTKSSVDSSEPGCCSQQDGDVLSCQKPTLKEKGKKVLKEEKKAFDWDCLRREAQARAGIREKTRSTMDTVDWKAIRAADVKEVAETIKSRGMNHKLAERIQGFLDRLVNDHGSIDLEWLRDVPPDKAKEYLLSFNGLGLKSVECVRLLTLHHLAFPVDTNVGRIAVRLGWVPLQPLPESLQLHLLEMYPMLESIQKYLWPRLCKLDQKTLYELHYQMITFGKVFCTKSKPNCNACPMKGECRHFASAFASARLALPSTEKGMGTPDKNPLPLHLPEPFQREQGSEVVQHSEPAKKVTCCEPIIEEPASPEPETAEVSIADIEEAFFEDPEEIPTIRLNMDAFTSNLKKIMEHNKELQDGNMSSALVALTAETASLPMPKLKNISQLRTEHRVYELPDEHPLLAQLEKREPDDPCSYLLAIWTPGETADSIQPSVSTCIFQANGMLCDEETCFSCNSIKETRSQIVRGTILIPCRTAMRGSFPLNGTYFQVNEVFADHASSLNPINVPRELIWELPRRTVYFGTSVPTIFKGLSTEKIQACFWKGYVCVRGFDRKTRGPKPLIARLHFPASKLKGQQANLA
Description: split reporter.

Test [2] deals with T2, ROS1, split luciferase fusion (Arabidopsis) (UniProt Q9SJQ6).
T2 sequence: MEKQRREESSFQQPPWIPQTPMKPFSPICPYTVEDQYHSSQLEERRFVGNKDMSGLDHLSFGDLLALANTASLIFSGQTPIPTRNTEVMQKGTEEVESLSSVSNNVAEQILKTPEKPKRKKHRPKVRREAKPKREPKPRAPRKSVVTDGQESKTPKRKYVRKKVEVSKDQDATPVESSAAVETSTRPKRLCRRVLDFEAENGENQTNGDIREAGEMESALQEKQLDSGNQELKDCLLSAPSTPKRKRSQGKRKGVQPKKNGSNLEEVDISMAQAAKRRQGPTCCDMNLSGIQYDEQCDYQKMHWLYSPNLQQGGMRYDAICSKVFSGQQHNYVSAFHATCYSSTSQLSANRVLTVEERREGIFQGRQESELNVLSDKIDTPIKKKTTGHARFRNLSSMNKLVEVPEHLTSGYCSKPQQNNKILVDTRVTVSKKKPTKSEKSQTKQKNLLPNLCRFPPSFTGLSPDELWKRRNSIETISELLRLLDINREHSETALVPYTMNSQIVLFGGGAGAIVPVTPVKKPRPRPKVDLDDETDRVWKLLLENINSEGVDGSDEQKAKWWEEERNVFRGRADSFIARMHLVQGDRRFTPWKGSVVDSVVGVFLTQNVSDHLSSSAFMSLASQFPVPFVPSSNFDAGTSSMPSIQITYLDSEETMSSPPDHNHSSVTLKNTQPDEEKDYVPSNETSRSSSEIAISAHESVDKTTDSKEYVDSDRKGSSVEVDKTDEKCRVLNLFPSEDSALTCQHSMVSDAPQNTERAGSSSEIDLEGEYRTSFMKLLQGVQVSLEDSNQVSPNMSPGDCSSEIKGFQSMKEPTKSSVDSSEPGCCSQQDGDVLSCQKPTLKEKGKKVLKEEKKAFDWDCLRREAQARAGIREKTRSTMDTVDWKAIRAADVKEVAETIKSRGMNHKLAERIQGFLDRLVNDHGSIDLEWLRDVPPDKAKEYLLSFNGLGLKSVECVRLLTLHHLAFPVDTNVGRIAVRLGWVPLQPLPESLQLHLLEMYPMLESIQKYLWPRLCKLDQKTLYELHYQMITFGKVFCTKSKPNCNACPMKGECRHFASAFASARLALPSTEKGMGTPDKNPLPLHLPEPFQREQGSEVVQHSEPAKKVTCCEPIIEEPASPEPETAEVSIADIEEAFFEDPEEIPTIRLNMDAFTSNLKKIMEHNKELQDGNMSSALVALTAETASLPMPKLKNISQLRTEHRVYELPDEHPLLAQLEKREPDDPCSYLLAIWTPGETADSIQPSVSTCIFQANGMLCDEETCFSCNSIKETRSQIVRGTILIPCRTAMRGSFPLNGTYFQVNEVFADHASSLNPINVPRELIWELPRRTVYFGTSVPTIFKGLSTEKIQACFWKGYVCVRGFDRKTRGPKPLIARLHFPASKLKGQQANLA
Description: split reporter.

For test [3], the target named is T3, REPRESSOR OF … 1 (ROS1), yeast two-hybrid fusion (Arabidopsis) (UniProt Q9SJQ6).
T3 sequence: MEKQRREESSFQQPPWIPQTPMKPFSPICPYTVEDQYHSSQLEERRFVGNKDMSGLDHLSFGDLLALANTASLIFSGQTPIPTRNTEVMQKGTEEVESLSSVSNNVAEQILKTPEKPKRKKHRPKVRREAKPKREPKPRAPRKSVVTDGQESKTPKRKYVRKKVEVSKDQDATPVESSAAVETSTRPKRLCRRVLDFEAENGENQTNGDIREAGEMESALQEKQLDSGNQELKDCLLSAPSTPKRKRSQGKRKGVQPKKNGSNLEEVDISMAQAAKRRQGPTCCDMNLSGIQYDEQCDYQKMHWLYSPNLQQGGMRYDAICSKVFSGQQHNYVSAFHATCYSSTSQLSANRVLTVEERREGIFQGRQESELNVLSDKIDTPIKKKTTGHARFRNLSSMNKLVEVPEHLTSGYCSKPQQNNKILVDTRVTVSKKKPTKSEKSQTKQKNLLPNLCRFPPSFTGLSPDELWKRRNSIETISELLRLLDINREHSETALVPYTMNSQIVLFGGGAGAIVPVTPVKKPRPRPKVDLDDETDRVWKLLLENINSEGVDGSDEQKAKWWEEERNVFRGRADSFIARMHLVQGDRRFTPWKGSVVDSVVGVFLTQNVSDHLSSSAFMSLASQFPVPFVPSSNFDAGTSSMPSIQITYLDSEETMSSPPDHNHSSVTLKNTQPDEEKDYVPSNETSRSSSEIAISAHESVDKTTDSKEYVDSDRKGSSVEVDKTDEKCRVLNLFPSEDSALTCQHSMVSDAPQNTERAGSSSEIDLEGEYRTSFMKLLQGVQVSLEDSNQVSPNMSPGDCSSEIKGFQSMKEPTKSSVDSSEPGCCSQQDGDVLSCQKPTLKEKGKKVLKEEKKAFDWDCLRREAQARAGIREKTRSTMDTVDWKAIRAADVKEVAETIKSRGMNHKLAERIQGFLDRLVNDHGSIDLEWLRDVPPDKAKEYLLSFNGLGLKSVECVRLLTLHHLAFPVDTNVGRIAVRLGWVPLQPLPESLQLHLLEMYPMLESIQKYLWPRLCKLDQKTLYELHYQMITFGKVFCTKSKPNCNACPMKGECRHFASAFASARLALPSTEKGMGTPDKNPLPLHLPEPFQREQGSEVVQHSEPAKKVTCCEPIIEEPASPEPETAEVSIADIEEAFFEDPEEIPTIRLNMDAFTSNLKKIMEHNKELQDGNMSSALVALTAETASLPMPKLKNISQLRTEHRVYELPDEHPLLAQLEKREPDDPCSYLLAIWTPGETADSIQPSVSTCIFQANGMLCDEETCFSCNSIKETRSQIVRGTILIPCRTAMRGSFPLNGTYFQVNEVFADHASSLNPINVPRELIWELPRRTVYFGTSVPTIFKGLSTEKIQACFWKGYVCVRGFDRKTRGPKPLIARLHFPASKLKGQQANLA
Description: two-hybrid.

The target in test [4] is ROS1-associated WD40 domain-containing protein (RWD40), yeast two-hybrid fusion (Arabidopsis). The test is described as follows: two-hybrid.

In the case of “RHD1, split YFP fusion (BiFC) (Arabidopsis)”, the binding result in test [1] is given as “no binding”.
Take “RHD1, split luciferase fusion (Arabidopsis)”: in test [2], the binding entry is “no binding”.
For the molecule “RMB1, split YFP fusion (BiFC) (Arabidopsis)”, in test [1], the binding entry is on record as “no binding”.
On to “RMB1, split luciferase fusion (Arabidopsis)”, for which the binding entry in test [2] was “no binding”.
In the case of “ROS1-associated WD40 domain-containing protein (RWD40), yeast two-hybrid fusion (Arabidopsis)”, the binding result in test [3] was “binds”.
Same read-out and setting: the entry for “ROS1-associated methyl-DNA binding protein 1 (RMB1), yeast two-hybrid fusion (Arabidopsis)” is “no binding”.
“RWD40, split YFP fusion (BiFC) (Arabidopsis)”: the binding entry in test [1] is on record as “binds”.
For the molecule “RWD40, split luciferase fusion (Arabidopsis)”, in test [2], the binding result is “binds”.

B1: ROS1 C-terminal half (amino acid residues 697 to 1393), yeast two-hybrid fusion (domain or fragment, UniProt Q9SJQ6 697-1393)
chain: AHESVDKTTDSKEYVDSDRKGSSVEVDKTDEKCRVLNLFPSEDSALTCQHSMVSDAPQNTERAGSSSEIDLEGEYRTSFMKLLQGVQVSLEDSNQVSPNMSPGDCSSEIKGFQSMKEPTKSSVDSSEPGCCSQQDGDVLSCQKPTLKEKGKKVLKEEKKAFDWDCLRREAQARAGIREKTRSTMDTVDWKAIRAADVKEVAETIKSRGMNHKLAERIQGFLDRLVNDHGSIDLEWLRDVPPDKAKEYLLSFNGLGLKSVECVRLLTLHHLAFPVDTNVGRIAVRLGWVPLQPLPESLQLHLLEMYPMLESIQKYLWPRLCKLDQKTLYELHYQMITFGKVFCTKSKPNCNACPMKGECRHFASAFASARLALPSTEKGMGTPDKNPLPLHLPEPFQREQGSEVVQHSEPAKKVTCCEPIIEEPASPEPETAEVSIADIEEAFFEDPEEIPTIRLNMDAFTSNLKKIMEHNKELQDGNMSSALVALTAETASLPMPKLKNISQLRTEHRVYELPDEHPLLAQLEKREPDDPCSYLLAIWTPGETADSIQPSVSTCIFQANGMLCDEETCFSCNSIKETRSQIVRGTILIPCRTAMRGSFPLNGTYFQVNEVFADHASSLNPINVPRELIWELPRRTVYFGTSVPTIFKGLSTEKIQACFWKGYVCVRGFDRKTRGPKPLIARLHFPASKLKGQQANLA
For B1, the binding entry in test [4] was “no binding”.

B2: ROS1 N-terminal half (amino acid residues 1 to 696), yeast two-hybrid fusion (domain or fragment, UniProt Q9SJQ6 1-696)
chain: MEKQRREESSFQQPPWIPQTPMKPFSPICPYTVEDQYHSSQLEERRFVGNKDMSGLDHLSFGDLLALANTASLIFSGQTPIPTRNTEVMQKGTEEVESLSSVSNNVAEQILKTPEKPKRKKHRPKVRREAKPKREPKPRAPRKSVVTDGQESKTPKRKYVRKKVEVSKDQDATPVESSAAVETSTRPKRLCRRVLDFEAENGENQTNGDIREAGEMESALQEKQLDSGNQELKDCLLSAPSTPKRKRSQGKRKGVQPKKNGSNLEEVDISMAQAAKRRQGPTCCDMNLSGIQYDEQCDYQKMHWLYSPNLQQGGMRYDAICSKVFSGQQHNYVSAFHATCYSSTSQLSANRVLTVEERREGIFQGRQESELNVLSDKIDTPIKKKTTGHARFRNLSSMNKLVEVPEHLTSGYCSKPQQNNKILVDTRVTVSKKKPTKSEKSQTKQKNLLPNLCRFPPSFTGLSPDELWKRRNSIETISELLRLLDINREHSETALVPYTMNSQIVLFGGGAGAIVPVTPVKKPRPRPKVDLDDETDRVWKLLLENINSEGVDGSDEQKAKWWEEERNVFRGRADSFIARMHLVQGDRRFTPWKGSVVDSVVGVFLTQNVSDHLSSSAFMSLASQFPVPFVPSSNFDAGTSSMPSIQITYLDSEETMSSPPDHNHSSVTLKNTQPDEEKDYVPSNETSRSSSEIAIS
Consider B2, for which the binding entry in test [4] is recorded as “binds”.

B3: ROS1 ELD (EAR-like Domain) domain (amino acid residues 41 to 100), yeast two-hybrid fusion (domain or fragment, UniProt Q9SJQ6 41-100)
chain: QLEERRFVGNKDMSGLDHLSFGDLLALANTASLIFSGQTPIPTRNTEVMQKGTEEVESLS
Turning to B3, the binding entry in test [4] is recorded as “binds”.
